Percent effect of library compounds

Protein sequences, listed by entry. Tags and fused reporters are not part of them. Residues count along the entry.
UniProt Q4DA54, 1-478: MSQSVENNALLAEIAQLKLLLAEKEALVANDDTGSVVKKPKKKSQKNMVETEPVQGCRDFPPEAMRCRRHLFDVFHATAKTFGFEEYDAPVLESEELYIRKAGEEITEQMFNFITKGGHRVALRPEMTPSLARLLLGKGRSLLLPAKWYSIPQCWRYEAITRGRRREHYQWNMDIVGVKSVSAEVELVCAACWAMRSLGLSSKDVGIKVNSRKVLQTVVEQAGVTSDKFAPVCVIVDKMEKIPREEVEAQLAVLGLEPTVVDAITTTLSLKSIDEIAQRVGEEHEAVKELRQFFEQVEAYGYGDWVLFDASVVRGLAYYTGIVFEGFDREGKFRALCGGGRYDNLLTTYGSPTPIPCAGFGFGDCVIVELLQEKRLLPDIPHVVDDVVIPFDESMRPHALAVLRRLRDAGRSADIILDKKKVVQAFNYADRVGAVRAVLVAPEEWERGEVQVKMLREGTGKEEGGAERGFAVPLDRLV
UniProt A4I591, 1-473: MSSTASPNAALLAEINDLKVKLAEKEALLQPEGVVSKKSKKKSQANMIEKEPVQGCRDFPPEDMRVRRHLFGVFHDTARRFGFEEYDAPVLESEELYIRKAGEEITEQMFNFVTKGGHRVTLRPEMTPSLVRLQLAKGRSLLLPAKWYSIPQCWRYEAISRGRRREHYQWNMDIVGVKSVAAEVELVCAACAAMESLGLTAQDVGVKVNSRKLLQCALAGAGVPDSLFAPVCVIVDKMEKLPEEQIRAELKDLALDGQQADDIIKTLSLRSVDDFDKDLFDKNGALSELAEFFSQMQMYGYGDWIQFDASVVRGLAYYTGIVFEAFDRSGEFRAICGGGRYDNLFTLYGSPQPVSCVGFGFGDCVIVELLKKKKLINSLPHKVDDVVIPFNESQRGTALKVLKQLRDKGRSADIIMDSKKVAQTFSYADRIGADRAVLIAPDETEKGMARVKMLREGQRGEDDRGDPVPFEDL
UniProt Q8IDJ8, 1-583: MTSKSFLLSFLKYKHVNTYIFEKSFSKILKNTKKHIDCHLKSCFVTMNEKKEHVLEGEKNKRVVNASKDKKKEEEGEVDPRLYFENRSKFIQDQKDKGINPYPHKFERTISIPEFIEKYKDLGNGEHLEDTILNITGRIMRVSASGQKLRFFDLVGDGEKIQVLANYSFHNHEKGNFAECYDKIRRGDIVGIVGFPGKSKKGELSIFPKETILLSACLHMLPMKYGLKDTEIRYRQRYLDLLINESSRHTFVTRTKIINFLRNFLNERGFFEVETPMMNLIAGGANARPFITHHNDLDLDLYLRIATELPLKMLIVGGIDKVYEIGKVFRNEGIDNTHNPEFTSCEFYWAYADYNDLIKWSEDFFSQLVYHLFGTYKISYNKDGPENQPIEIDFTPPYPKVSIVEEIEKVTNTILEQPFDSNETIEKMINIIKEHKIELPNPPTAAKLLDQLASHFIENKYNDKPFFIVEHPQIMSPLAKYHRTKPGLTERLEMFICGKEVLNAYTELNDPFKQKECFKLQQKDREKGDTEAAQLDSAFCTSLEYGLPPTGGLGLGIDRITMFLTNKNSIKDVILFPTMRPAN
UniProt P9WNZ1, whole entry: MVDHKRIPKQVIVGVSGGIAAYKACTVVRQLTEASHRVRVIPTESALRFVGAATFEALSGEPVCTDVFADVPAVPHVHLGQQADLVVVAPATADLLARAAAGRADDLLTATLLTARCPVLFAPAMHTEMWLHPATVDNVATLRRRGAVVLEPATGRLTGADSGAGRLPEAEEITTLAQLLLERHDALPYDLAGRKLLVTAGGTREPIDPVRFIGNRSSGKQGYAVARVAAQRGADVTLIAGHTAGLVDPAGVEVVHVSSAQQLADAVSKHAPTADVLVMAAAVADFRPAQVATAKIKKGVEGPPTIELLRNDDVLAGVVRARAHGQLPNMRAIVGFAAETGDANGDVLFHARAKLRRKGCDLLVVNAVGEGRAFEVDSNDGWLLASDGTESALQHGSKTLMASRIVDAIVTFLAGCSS

A: 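Enzyme assay of histidyl-tRNA synthetase; the read-out is not stated. Target: Histidine-tRNA ligase, Trypanosoma cruzi CL Brener (UniProt Q4DA54). Compounds at 30 µM. Higher reads as stronger inhibition (inferred: compounds with an IC50 in retests scored well above the rest). About 69,000 compounds were tested under these conditions; 0.045% (about 31) showed 50% or more at least once.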
B: 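Histidine-tRNA ligase, Leishmania infantum (UniProt A4I591). Enzyme assay of histidyl-tRNA synthetase; the read-out is not stated. Compounds at 30 µM. The record gives no direction; compounds that gave an IC50 in retests scored well above the rest, so higher reads as stronger inhibition. The assay is labelled LdHisRS but filed under L. infantum. Of about 69,000 compounds tested this way, about 410 (0.6%) reached 50% or more in at least one test.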
C: 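Assay of Toxoplasma gondii numbers, read through their beta-galactosidase reporter with a colour substrate. Compounds at 10 µM. The record gives no direction; the compounds picked for IC50 retests had high values, so higher reads as fewer parasites. Size under these conditions: about 67,000 compounds, about 260 of them at 50% or above in at least one test.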
D: 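Lysine-tRNA ligase, Plasmodium falciparum 3D7 (UniProt Q8IDJ8). Enzyme assay of the cytosolic lysyl-tRNA synthetase in 384-well plates, read by luminescence. Compounds at 30 µM. Higher reads as stronger inhibition, judged from the few compounds that gave an IC50. About 69,000 compounds were tested under these conditions; 0.071% (about 49) showed 50% or more at least once.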
E: 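Enzyme assay of CoaBC with a phosphate dye (Biomol Green) read at 650 nm. Target: Coenzyme A biosynthesis protein CoaBC, Mycobacterium tuberculosis (UniProt P9WNZ1). Compounds at 30 µM. Direction is inferred from only a few compounds that gave an IC50; most scored high, so higher reads as stronger inhibition. Most strong results did not repeat in a second test. About 67,000 compounds were tested under these conditions; 0.06% (about 40) showed 50% or more at least once.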

Results are given as percent effect. How 0% and 100% were set is not recorded. Most values in the screen are low, and negative values occur. Compounds were drawn at random from those tested, without regard to their results. A dash means the value is not listed here; it may have been measured.

| # | SMILES | A | B | C | D | E |
|---|---|---|---|---|---|---|
| 1 | `COc1ccccc1CC(=O)NC(CC(=O)O)c1ccc(C)cc1` (stereo not given) | 5.202% | 6.667% | -1.165% | 4.813% | 8.678% |
| 2 | `O=c1c2cc3c(cc2nnn1Cc1ccccc1Cl)OCCO3` | -5.804% | 8.642% | -41.92% | 2.46% | 1.02% |
| 3 | `CCN(C)S(=O)(=O)N(Cc1cscn1)c1ccccc1` | -1.064% | 7.463% | -5.635% | -0.3888% | 7.631% |
| 4 | `CN(C)[C@H]1CCCCN(C(=O)c2cccc(N3CCS(=O)(=O)CC3)c2)C1` | 12% | 11.48% | -38.07% | 3.91% | 5.411% |
| 5 | `Cc1cccc(CN2C[C@@H]3COC[C@]3(CNC(=O)N3CCCC3)C2)n1` | 2.732% | 13.73% | - | 4.298% | 2.188% |
| 6 | `CCn1cc(NC(=O)C2CCN(CCOC(C)C)CC2)cn1` | 3.788% | 7.576% | -6.215% | 2.178% | 6.845% |
| 7 | `CCc1c(C(=O)O)nnn1-c1cc(C)cc(C)c1` | 4.95% | 13.04% | - | 1.789% | 0.8505% |
| 8 | `CCN1CC(C(=O)NCCc2csc(-c3ccncc3)n2)CCC1=O` (stereo not given) | 5.83% | 24.71% | 21.76% | 4.883% | -0.5076% |
| 9 | `Cc1ccc(C)c2c(=O)cc(CN3CC[C@@H](N)[C@H](O)C3)[nH]c12` | 11.39% | 10.42% | -9.897% | 2.138% | 1.683% |
| 10 | `Cn1nc(C(=O)N2CCOCC2)c2c1CN(CC1CCC1)C2` | 5.291% | 6.364% | -43.1% | 5.591% | 0.7407% |
| 11 | `COc1ccc(CN(C)[C@@H]2COC[C@H]2c2ccc(F)cc2)cc1.O=C(O)CC(O)(CC(=O)O)C(=O)O` | - | - | 18.4% | - | - |
| 12 | `[H][C@]12CN(C(=O)c3ccno3)CCN1C(=O)N(CCOC)C2` | - | - | -2.96% | - | - |
| 13 | `[H][C@@]12CS(=O)(=O)C[C@]1([H])N(Cc1ccoc1)CCN2Cc1ccncc1` | - | - | 5.322% | - | - |
| 14 | `CCc1nnc(CN(CC)C(=O)C2CC(=O)N(C(C)(C)C)C2)o1` (stereo not given) | 8.8% | 6.557% | 16.03% | 4.838% | -0.2165% |
| 15 | `CN(C)CCN(Cc1ccc(Cl)cc1)C(=O)c1ccn(C)c(=O)c1` | 4.464% | 15.93% | -25.41% | 5.538% | -0.6289% |
| 16 | `C[C@]1(O)CN(Cc2ncccc2F)CC[C@@H]1Oc1ccccc1` | 7.605% | 13.1% | -13.88% | 0.7293% | 10.51% |
| 17 | `Cn1cc(CN2CCCC(CCc3c(F)cccc3F)C2)cn1` (stereo not given) | 5.464% | 5.479% | 5.464% | -0.2284% | -4.645% |
| 18 | `CCCn1ccnc1CN1CC[C@@H](NC(=O)c2cccnc2)[C@H](O)C1` | -0.4464% | 20.99% | -17.12% | 11.16% | 4.337% |
| 19 | `COc1cnc(N2C[C@@H](CN3CCOCC3)C[C@H](CO)C2)nc1` | 0.5405% | 5.479% | 10.74% | 0.382% | 14.55% |
| 20 | `O=C(NCC(O)COc1ccccc1)Nc1nncs1` (stereo not given) | -0.9901% | 18.48% | 0.2695% | 4.596% | 3.995% |
| 21 | `O=C(Nc1ccccc1Oc1cccc(F)c1)C1CCS(=O)(=O)C1` (stereo not given) | 1.571% | 12.07% | -11.79% | 6.184% | 7.495% |
| 22 | `O=C1CN(C(=O)C2CCCCC2)CC(O)CN1Cc1ccco1` (stereo not given) | 7.865% | 8.163% | 8.976% | 8.023% | 3.148% |
| 23 | `COc1cc(-c2n[nH]c(CO)n2)cc(OC)c1OC` | 10.89% | 16.48% | 6.808% | 2.151% | -1.687% |
| 24 | `Cc1cc(C(=O)N2CCCN(Cc3nccn3C)CC2)no1` | -6.358% | -2.679% | 21.97% | -1.303% | 2.427% |
| 25 | `CCCC(=O)N1CCC(c2nn(C)c(=O)n2-c2ccccc2)CC1` | 1.111% | 7.692% | -16.9% | 2.245% | 3.782% |
| 26 | `CC(C)(C)c1n[nH]c(C2CN(C(=O)c3ccsc3)CCO2)n1` (stereo not given) | 0% | -4.255% | -0.9774% | 4.595% | 2.332% |
| 27 | `CC(NCc1ccncc1)c1ccc(N2CCN(C)CC2)c(F)c1` (stereo not given) | 7.389% | 3.947% | - | -2.135% | -18.39% |
| 28 | `O=C(O)C(F)(F)F.[H][C@]12CCN(c3ncccn3)[C@@]1([H])C[C@@H](C(=O)Nc1nc(C)cs1)O2` | - | - | -6.846% | - | - |
| 29 | `COCCOc1ncccc1C(=O)N(C)c1nccs1` | 3.012% | 13.19% | -1.45% | 0.906% | -1.829% |
| 30 | `Cc1cnn(CC2CCCN2C(=O)CCc2cscn2)c1` (stereo not given) | 1.183% | 8.929% | -3.687% | -2.274% | 5.196% |
| 31 | `CCS(=O)(=O)Nc1cnn(Cc2cccc(Cl)c2)c1` | 9.901% | 23.08% | 10.65% | 1.853% | 1.446% |
| 32 | `O=C(C1CC1)N1Cc2[nH]nc(COCc3cccnc3)c2C1` | 1.111% | 9.434% | - | 1.944% | 1.22% |
| 33 | `CCC1CN(C(=O)CN2CCN(c3nccc(OC)n3)CC2)CCO1` (stereo not given) | 2.89% | 7.895% | -12.61% | 0.7408% | 2.738% |
| 34 | `Cc1cc(NCc2ccccc2)nc2[nH]nc(N)c12` | -1.754% | 10.53% | -11.73% | 1.212% | 6.061% |
| 35 | `Fc1ccc(-c2nnc(CN3CCCC3Cn3cccn3)o2)cc1` (stereo not given) | 10.29% | 23.08% | -17% | 2.988% | -3.106% |
| 36 | `O=c1[nH]nc(CCCN2CCOCC2)n1-c1ccc(F)cc1F` | -0.4975% | 5.594% | 14.06% | -2.166% | -1.728% |
| 37 | `CCC(=O)N1CCCC(c2nc(N(C)C)ncc2-c2ccc(F)cc2)C1` (stereo not given) | 6.513% | 12.86% | -18.66% | 0.6377% | 0.7282% |
| 38 | `O=S(=O)(C1CC1)N1CCOCC2(CN(c3ncccn3)CCO2)C1` (stereo not given) | 2.299% | 21.05% | 9.043% | -0.9354% | 6.314% |
| 39 | `CCn1ccnc1S(=O)(=O)Cc1ccc(C(N)=O)cc1` | 1.235% | 0% | -6.684% | 2.063% | -1.72% |
| 40 | `O=C(c1ccco1)N1CC[C@@H]2O[C@H](COCC3CCOCC3)CC[C@@H]21` | -0.9804% | 9.244% | - | 0.3632% | 3.089% |

4 of the entries, repeated:

SMILES	A	B	C	D	E
O=C(Nc1ccccc1Oc1cccc(F)c1)C1CCS(=O)(=O)C1 (stereo not given)	1.571%	12.07%	-11.79%	6.184%	7.495%
CC(C)(C)c1n[nH]c(C2CN(C(=O)c3ccsc3)CCO2)n1 (stereo not given)	0%	-4.255%	-0.9774%	4.595%	2.332%
[H][C@@]12CS(=O)(=O)C[C@]1([H])N(Cc1ccoc1)CCN2Cc1ccncc1	-	-	5.322%	-	-
O=C(c1ccco1)N1CC[C@@H]2O[C@H](COCC3CCOCC3)CC[C@@H]21	-0.9804%	9.244%	-	0.3632%	3.089%

Source: ChEMBL document CHEMBL3988442, “University of Dundee, Small-Polar-MMV Screening Library” (2021).